Drawing on PubChem BioAssay AID248 (DTP/NCI, 2004), this text covers survivor count and T/C for 22 compounds.

For this assay, the system named is L1210 leukemia ip in BDF1 mice, survival T/C. Description: NCI In Vivo Anticancer Drug Screen. Data for tumor model L1210 Leukemia (intraperitoneal) in B6D2F1 (BDF1) mice. Conditions: T/C endpoint: mean survival time, higher T/C = longer survival.
[1] abbreviates: dose: 100.0 mg/kg/injection, schedule: Q04DX003 (ip), vehicle: Klucel (hydroxypropylcellulose) (HPC).
[2] abbreviates: dose: 200.0 mg/kg/injection, schedule: Q04DX003 (ip), vehicle: Klucel (hydroxypropylcellulose) (HPC).
Setting [3] is: dose: 400.0 mg/kg/injection, schedule: Q04DX003 (ip), vehicle: Klucel (hydroxypropylcellulose) (HPC).
The mark [4] stands for this setting: dose: 200.0 mg/kg/injection, schedule: Q01DX009 (ip), vehicle: saline.
Setting [5] is: dose: 400.0 mg/kg/injection, schedule: Q04DX003 (ip), vehicle: saline with Tween-80.
The mark [6] stands for this setting: dose: 400.0 mg/kg/injection, schedule: Q01DX001 (ip), vehicle: saline.
The mark [7] stands for this setting: dose: 400.0 mg/kg/injection, schedule: Q04DX003 (ip), vehicle: saline.
The mark [8] stands for this setting: dose: 400.0 mg/kg/injection, schedule: Q01DX009 (ip), vehicle: saline with Tween-80.
Where [9] appears, read: dose: 100.0 mg/kg/injection, schedule: Q01DX009 (ip), vehicle: saline.
The mark [10] stands for this setting: dose: 200.0 mg/kg/injection, schedule: Q01DX009 (ip), vehicle: saline with Tween-80.

The list is a part of this screen's results and no random one: it gathers tests that were run many times, whatever their T/C, doses with no T/C, and many T/C values between a quarter and a half above the control. Other doses and runs of a compound stand elsewhere. T/C: endpoint of the treated group in % of that of the vehicle group. Some entries give survivors of the animals treated and no T/C: the source files T/C as zero there, which appears to mark a toxic dose or a test without result, not a measured value. Some doses without a T/C left all or most animals alive at the check, yet need not have been tolerated: the source hardly ever lists a survival T/C far under the control, and the zero likely stands for such cases as well. Counts of survivors are from the toxicity check (mostly the fifth day) where no day follows; animals may have died later. Schedule codes are those of the source, read here as Q, the interval in days (D) or hours (H), X, the number of doses. Some schedule codes hold Z or #, which are not explained here. Where survival is the endpoint, the PubChem record calls one and a half times the control and up active, and a quarter to a half above the control has no call in these data; cut-offs in other NCI protocols can differ. Some T/C values carry the count of animals alive at the toxicity check (mostly the fifth day); where none is given, no animal had died by that day.

In the case of `C1CSCSC1`, the survivor count is, setting by setting: (dose: 50.0 mg/kg/injection, schedule: Q01DX009 (ip), vehicle: Klucel (hydroxypropylcellulose) (HPC)) 0 of 6; under setting [1], 0 of 6; under setting [2], 0 of 6; under setting [3], 0 of 6.

Take `CCCCOC(=O)CCl`: under “dose: 400.0 mg/kg/injection, schedule: Q04DX002 (ip), vehicle: saline with Tween-80”, the survivor count was 1 of 3.

Consider `CCC(O)Cc1c[nH]c(=O)[nH]c1=O` (stereo not drawn), for which the survivor count is, setting by setting: under setting [4], 3 of 6; under setting [5], 0 of 6.

Take `CC(C(=O)c1ccccc1)C(=O)C(F)(F)F` (stereo not drawn): for the setting “dose: 500.0 mg/kg/injection, schedule: Q01DX Z (ip), vehicle: methylcellulose (MC)”, the survivor count is reported as 0 of 6.

Turning to `O=NN1CCOCC1`, the survivor count runs as follows: (dose: 100.0 mg/kg/injection, schedule: Q04DX002 (ip), vehicle: saline) 3 of 3; (dose: 200.0 mg/kg/injection, schedule: Q04DX002 (ip), vehicle: saline) 3 of 3; under setting [6], 1 of 4; (dose: 400.0 mg/kg/injection, schedule: Q04DX002 (ip), vehicle: saline) 2 of 3.

In the case of `CC(=O)c1cc(O)c2ccccc2c1O`, the survivor count (dose: 400.0 mg/kg/injection, schedule: Q01DX001 (ip), vehicle: water) is given as 0 of 6.

As for `C(=N\c1ncn[nH]1)/Nc1ncn[nH]1`, the survivor count under setting [7] is 4 of 6.

Turning to `COc1cc2c(c(OC)c1OC)-c1ccc(OC)c(=O)cc1[C@@H](NC(=O)CCl)CC2`, the T/C is 141 % of control (dose: 0.39 mg/kg/injection, schedule: Q01DX009 (ip), vehicle: saline); 127 % of control (dose: 0.39 mg/kg/injection, schedule: Q04DX003 (ip), vehicle: saline); 131 % of control (dose: 0.65 mg/kg/injection, schedule: Q01DX009 (ip), vehicle: saline); 131 % of control (dose: 0.65 mg/kg/injection, schedule: Q04DX003 (ip), vehicle: saline); 139 % of control (dose: 1.08 mg/kg/injection, schedule: Q04DX003 (ip), vehicle: saline); 140 % of control (dose: 1.8 mg/kg/injection, schedule: Q04DX003 (ip), vehicle: saline). In addition, the T/C is 133 % of control (dose: 3.0 mg/kg/injection, schedule: Q01DX001 (ip), vehicle: saline); 130 % of control (dose: 5.0 mg/kg/injection, schedule: Q01DX001 (ip), vehicle: saline); 126 % of control (dose: 9.0 mg/kg/injection, schedule: Q01DX001 (ip), vehicle: saline). Moreover, the survivor count is, setting by setting: (dose: 0.5 mg/kg/injection, schedule: Q01DX009 (ip), vehicle: Klucel (hydroxypropylcellulose) (HPC)) 6 of 6; (dose: 1.0 mg/kg/injection, schedule: Q01DX009 (ip), vehicle: Klucel (hydroxypropylcellulose) (HPC)) 6 of 6; (dose: 1.08 mg/kg/injection, schedule: Q01DX009 (ip), vehicle: saline) 8 of 8; (dose: 1.5 mg/kg/injection, schedule: Q01DX009 (ip), vehicle: Klucel (hydroxypropylcellulose) (HPC)) 2 of 6; (dose: 3.0 mg/kg/injection, schedule: Q01DX009 (ip), vehicle: Klucel (hydroxypropylcellulose) (HPC)) 3 of 6; (dose: 3.0 mg/kg/injection, schedule: Q04DX003 (ip), vehicle: saline) 7 of 8. The survivor count is 0 of 6 (dose: 6.0 mg/kg/injection, schedule: Q01DX009 (ip), vehicle: Klucel (hydroxypropylcellulose) (HPC)); 1 of 6 (dose: 12.5 mg/kg/injection, schedule: Q04DX003 (ip), vehicle: Klucel (hydroxypropylcellulose) (HPC)); 0 of 6 (dose: 25.0 mg/kg/injection, schedule: Q04DX003 (ip), vehicle: Klucel (hydroxypropylcellulose) (HPC)); 0 of 6 (dose: 50.0 mg/kg/injection, schedule: Q04DX003 (ip), vehicle: Klucel (hydroxypropylcellulose) (HPC)); 0 of 6 under setting [1]; 0 of 6 under setting [2]. Further, the survivor count under setting [3] is reported as 0 of 6.

As to `CNC(=O)c1ccc[n+](CC(=O)Nc2ccc(Cl)cc2)c1`, the survivor count (dose: 400.0 mg/kg/injection, schedule: Q04DX003 (ip), vehicle: acetone) is 3 of 6.

On to `C[CH2][Pb]([CH2]C)([CH2]C)[O]C(=O)C=C1CCCC1`, for which the survivor count is reported as 5 of 6 (dose: 5.0 mg/kg/injection, schedule: Q01DX009 (ip), vehicle: saline with Tween-80); 0 of 6 (dose: 10.0 mg/kg/injection, schedule: Q01DX009 (ip), vehicle: saline with Tween-80); 0 of 6 (dose: 100.0 mg/kg/injection, schedule: Q04DX003 (ip), vehicle: saline with Tween-80); 0 of 6 (dose: 200.0 mg/kg/injection, schedule: Q04DX003 (ip), vehicle: saline with Tween-80); 0 of 6 under setting [5].

Turning to `c1ccc(N2CCN(c3ccccc3)CC2)cc1`, the survivor count under setting [8] is 6 of 6.

As for `CC(=O)N(CCN(C)C)Cc1ccccc1`, the survivor count under setting [6] is 0 of 4.

Regarding `NNc1ccccc1Br`, under setting [7], the survivor count is 0 of 6.

`O=C(NCCBr)c1ccc(N=Nc2ccccc2)cc1`: the survivor count was 3 of 6 under setting [1], 0 of 6 under setting [2] and 0 of 6 under setting [3].

With `CCOCc1ccc(O)c2ncccc12`, the survivor count (dose: 600.0 mg/kg/injection, schedule: Q01DX001 (ip), vehicle: carboxymethylcellulose (CMC)) is 2 of 6.

`CCCCCCCCc1ccc(O)c(Cl)c1`: the survivor count under setting [8] is recorded as 6 of 6.

Consider `CC1(C)N=C(N)N=C(N)N1c1ccc(CC(=O)Nc2cccc(S(=O)(=O)F)c2)cc1`, for which the T/C (dose: 25.0 mg/kg/injection, schedule: Q#A X018 (ip), vehicle: saline) is 126 % of control and the T/C under setting [9] was 125 % of control [5 of 6 alive]. For the same compound, the survivor count is reported as 3 of 6 under setting [9]; 2 of 6 under setting [4]; 0 of 6 (dose: 300.0 mg/kg/injection, schedule: Q01DX009 (ip), vehicle: saline); 1 of 6 under setting [6]; 0 of 6 (dose: 400.0 mg/kg/injection, schedule: Q01DX009 (ip), vehicle: saline).

In the case of `O=C(/C=C\c1ccc(Cl)c(Cl)c1)/C=C/c1ccc(Cl)c(Cl)c1`, where the note is “dose: 200.0 mg/kg/injection, schedule: Q04DX002 (ip), vehicle: saline with Tween-80”, the survivor count was 3 of 3.

As for `ClCCn1c(CCl)nc2ccc(Cl)cc21`, the survivor count (dose: 100.0 mg/kg/injection, schedule: Q01DX009 (ip), vehicle: Klucel (hydroxypropylcellulose) (HPC)) is 0 of 6; the survivor count (dose: 200.0 mg/kg/injection, schedule: Q01DX009 (ip), vehicle: Klucel (hydroxypropylcellulose) (HPC)) is 0 of 6; the survivor count (dose: 400.0 mg/kg/injection, schedule: Q01DX009 (ip), vehicle: Klucel (hydroxypropylcellulose) (HPC)) is 0 of 6.

For the compound `O=C(C=C(C(F)(F)F)C(F)(F)F)c1ccc(Cl)cc1`, the survivor count is on record as 1 of 6 (dose: 50.0 mg/kg/injection, schedule: Q01DX009 (ip), vehicle: saline with Tween-80); 0 of 6 (dose: 100.0 mg/kg/injection, schedule: Q01DX009 (ip), vehicle: saline with Tween-80); 0 of 6 under setting [10]; 0 of 6 under setting [5].

Turning to `O=C(O)CNc1cc(S(=O)(=O)O)cc2cc(S(=O)(=O)O)c(N=Nc3cc(S(=O)(=O)O)cc4cc(S(=O)(=O)O)cc(O)c34)c(O)c12`, the survivor count (dose: 400.0 mg/kg/injection, schedule: Q01DX001 (ip), vehicle: other) was 3 of 6.

Turning to `O=C1N(Cl)C(=O)C(c2ccc(C(F)(F)F)cc2)(c2ccc(C(F)(F)F)cc2)N1Cl`, the survivor count reads like this: under setting [10], 5 of 6; under setting [5], 3 of 6.
